No constants are given. Whether binding was seen depends on the method and setting. In cells and extracts the contact can be indirect. These calls come from enrichment with a bait or labelling near it, and not all partners need be listed.

Protein sequences, listed by entry. Tags and fused reporters are not part of them. Residues count along the entry.
UniProt P33316, residues 70-252: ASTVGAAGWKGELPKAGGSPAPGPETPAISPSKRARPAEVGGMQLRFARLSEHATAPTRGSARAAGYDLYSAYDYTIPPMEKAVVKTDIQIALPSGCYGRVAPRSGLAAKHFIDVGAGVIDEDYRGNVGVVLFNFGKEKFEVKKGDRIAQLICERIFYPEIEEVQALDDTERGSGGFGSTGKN
UniProt O75821: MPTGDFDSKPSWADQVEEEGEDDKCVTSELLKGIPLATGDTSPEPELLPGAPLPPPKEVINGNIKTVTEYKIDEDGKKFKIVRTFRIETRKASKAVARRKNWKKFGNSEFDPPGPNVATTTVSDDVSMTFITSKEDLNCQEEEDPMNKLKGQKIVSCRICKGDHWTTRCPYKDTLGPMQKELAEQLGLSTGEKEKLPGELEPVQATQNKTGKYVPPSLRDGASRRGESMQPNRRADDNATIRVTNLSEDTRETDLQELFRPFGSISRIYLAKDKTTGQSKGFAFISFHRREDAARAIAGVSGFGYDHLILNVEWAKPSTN
UniProt Q52LJ0: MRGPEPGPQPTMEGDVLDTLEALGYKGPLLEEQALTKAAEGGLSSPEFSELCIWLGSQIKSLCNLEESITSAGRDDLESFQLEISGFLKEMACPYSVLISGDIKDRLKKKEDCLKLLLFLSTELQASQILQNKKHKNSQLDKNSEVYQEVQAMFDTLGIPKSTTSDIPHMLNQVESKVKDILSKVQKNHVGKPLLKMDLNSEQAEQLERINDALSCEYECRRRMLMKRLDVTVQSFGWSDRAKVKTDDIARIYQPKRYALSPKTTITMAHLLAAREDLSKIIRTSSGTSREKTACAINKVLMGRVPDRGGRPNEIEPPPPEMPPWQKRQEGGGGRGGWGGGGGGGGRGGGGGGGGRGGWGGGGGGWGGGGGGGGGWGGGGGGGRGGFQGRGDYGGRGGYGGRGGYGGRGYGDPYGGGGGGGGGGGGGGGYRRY
UniProt O14929: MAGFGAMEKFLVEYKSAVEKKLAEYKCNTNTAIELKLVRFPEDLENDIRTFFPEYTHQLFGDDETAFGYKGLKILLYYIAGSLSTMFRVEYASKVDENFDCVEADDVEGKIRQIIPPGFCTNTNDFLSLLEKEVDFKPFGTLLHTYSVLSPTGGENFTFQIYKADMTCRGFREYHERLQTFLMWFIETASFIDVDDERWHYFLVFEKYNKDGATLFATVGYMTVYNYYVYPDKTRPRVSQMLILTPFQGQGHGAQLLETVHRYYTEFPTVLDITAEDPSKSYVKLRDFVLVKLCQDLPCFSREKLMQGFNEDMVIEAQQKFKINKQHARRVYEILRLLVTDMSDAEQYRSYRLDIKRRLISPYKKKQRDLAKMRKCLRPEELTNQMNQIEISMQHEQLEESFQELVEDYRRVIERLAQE
UniProt P27816: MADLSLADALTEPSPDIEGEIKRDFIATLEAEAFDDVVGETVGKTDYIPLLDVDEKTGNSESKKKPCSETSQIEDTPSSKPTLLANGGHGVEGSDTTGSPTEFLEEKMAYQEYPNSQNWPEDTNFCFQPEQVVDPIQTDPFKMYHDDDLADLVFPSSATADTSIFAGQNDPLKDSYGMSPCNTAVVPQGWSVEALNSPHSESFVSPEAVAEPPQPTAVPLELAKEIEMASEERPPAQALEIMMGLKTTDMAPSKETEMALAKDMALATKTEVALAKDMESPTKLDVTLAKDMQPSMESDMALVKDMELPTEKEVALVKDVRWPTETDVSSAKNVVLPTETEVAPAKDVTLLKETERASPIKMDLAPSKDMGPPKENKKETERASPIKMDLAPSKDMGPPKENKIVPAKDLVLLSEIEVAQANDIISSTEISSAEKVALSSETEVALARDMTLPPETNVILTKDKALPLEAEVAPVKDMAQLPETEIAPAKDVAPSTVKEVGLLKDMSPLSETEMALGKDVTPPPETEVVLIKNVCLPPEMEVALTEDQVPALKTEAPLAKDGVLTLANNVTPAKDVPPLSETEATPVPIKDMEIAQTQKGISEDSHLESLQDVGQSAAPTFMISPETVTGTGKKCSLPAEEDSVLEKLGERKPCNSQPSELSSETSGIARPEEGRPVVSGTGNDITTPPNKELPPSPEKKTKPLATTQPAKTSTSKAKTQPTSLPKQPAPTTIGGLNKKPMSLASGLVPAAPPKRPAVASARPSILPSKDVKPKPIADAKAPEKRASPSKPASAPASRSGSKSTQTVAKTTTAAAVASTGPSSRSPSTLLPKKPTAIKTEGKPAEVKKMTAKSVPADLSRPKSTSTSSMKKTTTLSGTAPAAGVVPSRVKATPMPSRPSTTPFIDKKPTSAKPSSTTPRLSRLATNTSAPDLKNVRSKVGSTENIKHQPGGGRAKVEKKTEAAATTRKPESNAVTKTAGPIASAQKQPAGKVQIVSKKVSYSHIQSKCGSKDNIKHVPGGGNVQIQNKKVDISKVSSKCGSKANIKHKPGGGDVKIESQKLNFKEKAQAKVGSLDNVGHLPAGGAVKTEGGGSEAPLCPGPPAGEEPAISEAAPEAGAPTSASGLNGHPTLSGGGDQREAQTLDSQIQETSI
UniProt P60660: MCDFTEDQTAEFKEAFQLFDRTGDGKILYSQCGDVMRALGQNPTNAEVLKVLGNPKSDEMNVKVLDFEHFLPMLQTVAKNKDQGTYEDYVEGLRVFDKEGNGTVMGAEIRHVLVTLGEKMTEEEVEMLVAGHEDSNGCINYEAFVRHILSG
UniProt Q15370: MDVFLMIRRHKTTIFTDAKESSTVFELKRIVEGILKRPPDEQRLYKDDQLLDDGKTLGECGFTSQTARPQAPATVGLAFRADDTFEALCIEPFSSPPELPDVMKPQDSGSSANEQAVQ
UniProt O14545: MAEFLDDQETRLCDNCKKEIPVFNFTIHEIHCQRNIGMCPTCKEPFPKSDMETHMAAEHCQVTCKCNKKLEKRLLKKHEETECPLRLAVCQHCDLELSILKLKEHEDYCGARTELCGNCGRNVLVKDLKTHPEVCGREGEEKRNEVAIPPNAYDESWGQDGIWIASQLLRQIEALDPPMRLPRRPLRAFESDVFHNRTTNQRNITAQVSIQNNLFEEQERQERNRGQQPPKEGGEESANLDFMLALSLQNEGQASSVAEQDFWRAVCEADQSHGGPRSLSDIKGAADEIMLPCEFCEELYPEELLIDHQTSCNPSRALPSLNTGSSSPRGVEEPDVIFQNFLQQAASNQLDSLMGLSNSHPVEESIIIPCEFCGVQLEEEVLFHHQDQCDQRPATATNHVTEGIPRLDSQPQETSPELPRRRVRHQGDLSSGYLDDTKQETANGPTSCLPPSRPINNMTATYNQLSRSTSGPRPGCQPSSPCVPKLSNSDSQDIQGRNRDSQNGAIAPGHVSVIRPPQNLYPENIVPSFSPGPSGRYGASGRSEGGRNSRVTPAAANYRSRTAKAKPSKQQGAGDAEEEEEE

Experimental findings from paper PMC10789646 are described below.

The assay concerns the target T1, BRPF1 bromodomain N651AzF (UniProt P55201).
T1 sequence (chain, 4-azido-L-phenylalanine (AzF) at 651): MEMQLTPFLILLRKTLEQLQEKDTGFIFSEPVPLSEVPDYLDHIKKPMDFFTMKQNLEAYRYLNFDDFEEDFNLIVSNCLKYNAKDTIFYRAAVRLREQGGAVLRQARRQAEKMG
The assay can be described thus: cross-linking + affinity purification with mass spectrometry; ~1 mg lysate of trichostatin A treated HEK293T cells with 50 μM BRPF1-N651AzF; 365 nm UV; Ni-NTA pull-down, washes with 400 mM KCl and Triton X-100; in-solution trypsin digestion, LC-MS/MS; +UV against -UV; only the target purified.

As to DUT (from UniProt P33316 70-252), the binding entry is on record as “binds”.
As to EIF3G (from UniProt O75821 1-320), the binding entry is reported as “binds”.
The value for FAM98B (from UniProt Q52LJ0 1-433) was “binds”; that for “HAT1 (from UniProt O14929 1-419) (enzyme)” was “binds”; that for MAP4 (from UniProt P27816 1-1152) was “binds”.
The value for MYL6 (from UniProt P60660 1-151) was “binds”; that for TCEB2 (from UniProt Q15370 1-118) was “binds”; that for TRAFD1 (from UniProt O14545 1-582) was “binds”.
The value for TXLN4 (human (endogenous in HEK293T)) was “binds”.
